# Reference: publication PMC5996148
# Where “and” joins values, the source holds several entries; their conditions need not be identical. Equal entries are not always repeated. This is one part of the list.
# What was measured:
# Assay in all cases: protein microarray (ProtoArray v5.0), streptavidin-Alexa Fluor 647
# Conditions in all cases: 3'-biotin; 20 mM Tris (pH 7.5), 5 mM MgCl2, 100 mM KCl, 0.1% Tween-20, A/T-rich and random oligonucleotide blockers; temperature not stated; high values mean tight binding
# [1] = tested on: Dedicator of cytokinesis protein 8 (human)
# [2] = tested on: Dehydrogenase/reductase SDR family member 1 (human)
# [3] = tested on: Density-regulated protein (human)
# [4] = tested on: Deoxycytidine kinase (human)
# [5] = tested on: Differentially expressed in FDCP 6 homolog (human)
# [6] = tested on: Dihydroorotate dehydrogenase, mitochondrial (human)
# [7] = tested on: Docking protein 6 (human)
# [8] = tested on: Down syndrome critical region protein 8 (human)
# [9] = tested on: Dual specificity tyrosine-phosphorylation-regulated kinase 1A (human)
# E2F4 (human) = tested on: E2F4 (human)
sequence,measurement,setting,value
GGTGACAGGGGTATGGGGAGGGG [G4-2 biotinylated (Ct1)],binding signal,[1],-0.367 z-score
same,binding signal,[2],-0.391 z-score and -0.384 z-score
same,binding signal,[3],6.51 z-score
same,binding signal,[4],-0.377 z-score
same,binding signal,[5],-0.397 z-score
same,binding signal,[6],-0.368 z-score
same,binding signal,[7],-0.386 z-score
same,binding signal,[8],-0.386 z-score
same,binding signal,[9],3.83 z-score
same,binding signal,E2F4 (human),-0.384 z-score

# Part of the list above, tab-delimited:
sequence	measurement	setting	value
GGTGACAGGGGTATGGGGAGGGG [G4-2 biotinylated (Ct1)]	binding signal	[7]	-0.386 z-score
same	binding signal	[8]	-0.386 z-score
